# In all, about 33,000 sequences were measured (“E-score (-0.5 to 0.5)”: median about -8e-05, highest 2% from about 0.23 on). Some of the results follow.
# Target: T1, Nrg2 (UniProt P38082)
# T1 sequence: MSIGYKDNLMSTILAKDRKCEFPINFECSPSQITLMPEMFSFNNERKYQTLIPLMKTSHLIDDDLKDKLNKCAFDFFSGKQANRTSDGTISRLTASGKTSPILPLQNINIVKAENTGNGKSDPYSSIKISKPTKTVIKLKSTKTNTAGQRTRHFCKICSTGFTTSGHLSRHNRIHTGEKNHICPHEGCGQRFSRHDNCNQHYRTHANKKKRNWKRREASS
# Test: PBM E-score (8-mer binding enrichment) (E-score (-0.5 to 0.5)); higher = stronger / more preferred TF binding
# Settings: protein concentration: 100 nM; construct: GST-full length
# How it was run: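 Full-length yeast transcription factors or their DNA-binding domains, GST-tagged and expressed with PURExpress, were applied at about 100-200 nM to universal all-10-mer Agilent arrays. These arrays had been made double-stranded by primer extension on fresh or once-stripped slides. Detection used fluorescent anti-GST, normalisation used masliner, and E-scores for ungapped eight-base words pooled with reverse complements came from the Universal PBM Analysis Suite.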
row,Sequence,PBM E-score
1,AAAATGGG,-0.0403
2,CACATTAC,0.111
3,CACTATAG,-0.00981
4,GAGAAGGA,-0.0474
5,ATATCCTA,0.102
6,CTCTTCTA,-0.192
7,ACGTGCGG,-0.00691
8,CCCCACGG,-0.0969
9,GGATTTAC,0.0984
10,CTCAGATC,0.0131
11,GAAGGTAA,0.181
12,GAATCTCA,-0.121
13,ACGCCGTC,0.0439
14,ACTAATGC,0.108
15,AAGAACTG,-0.0148
16,AGCCTGAT,-0.168
17,ATCGTCCA,-0.25
18,ATACGCAC,0.195
19,GGCGTCGA,0.148
20,CCGACCTC,-0.0353
21,TGTGGGAA,-0.0662
22,AATCATTG,-0.0463
23,CTCAGACA,0.0837
24,AAGTAATG,0.0727
25,CGGACGGC,-0.281

# Copied from above (6 entries):
row,Sequence,PBM E-score
7,ACGTGCGG,-0.00691
8,CCCCACGG,-0.0969
9,GGATTTAC,0.0984
10,CTCAGATC,0.0131
11,GAAGGTAA,0.181
12,GAATCTCA,-0.121

# The results go on:

row,Sequence,PBM E-score
1,AATGCTAG,-0.188
2,ATGTGGCA,-0.125
3,AGTTCGCC,0.119
4,AAGCGATA,-0.0485
5,CGGAGATC,-0.0999
6,CAACTCTA,-0.0729
7,ACCTTATG,0.083
8,TATGATGA,0.131
9,GTCAATAA,-0.0545
10,CGCTACAA,0.0962
11,CGAAACGA,0.0616
12,AAGTTTTG,0.0361
13,GCGGGCGA,0.176
14,ATAGATGC,0.0367
15,AGATCTAC,0.00881
16,CAGTCGGA,-0.0641
17,CTACTAAA,-0.0146
18,CTTGGTTA,0.168
19,CTGAGTGC,-0.0978
20,GACCCGTA,-0.0252
21,CCGGGCCA,-0.18
22,GTAAAGCA,0.0559
23,ATAAATAC,0.283
24,ACGCGTTC,0.0995
25,AAATAATC,0.0163

row,Sequence,PBM E-score
1,CGACTCCG,-0.183
2,TGGGCAAA,-0.0262
3,CTAAAATA,0.0247
4,AAAGCGCA,0.012
5,GAGCCATC,-0.0472
6,CCCTCCCG,-0.164
7,CCACGAAA,-0.00511
8,TTACTCAA,0.0539
9,AACTCCCG,-0.0376
10,ATGAAAGA,-0.0407
11,CATGCCAA,0.00072
12,ACTCGGCC,0.156
13,CTTCCCCC,-0.439
14,ATGCATAC,0.158
15,AGCCATAG,-0.141
16,AGTGGTGA,0.0048
17,CCGGACGC,-0.0466
18,ACAAAACA,0.119
19,GTTATAAA,0.0259
20,CTCACAGA,-0.0399
21,ATGTAGTG,0.106
22,AAGACTTG,-0.0923
23,GTTAGTAA,-0.0112
24,AGTTGCAG,0.0622
25,CTGCGCCC,-0.199

row,Sequence,PBM E-score
1,ACTTGATA,0.161
2,CGATTGCG,-0.00482
3,CCTTTACC,-0.23
4,AACGGACT,-0.246
5,ACGGCACA,-0.0257
6,GTTTATTA,0.194
7,GTCCTCCA,-0.0208
8,ACATCCAA,0.0589
9,GGGCGGAA,0.152
10,CCTAGGAG,-0.097
11,ATCGGAAG,-0.0539
12,TAATAGTA,0.192
13,CCGATCAA,0.0214
14,GGATGAAC,-0.0785
15,GTCGGCCA,-0.148
16,CCCTAAAA,-0.112
17,ACCAAGCG,-0.105
18,TACATGTA,0.092
19,CCCCCCAC,-0.477
20,CCAGACTA,-0.0181
21,ATGGGACC,0.124
22,CCAATTAG,0.199
23,CTAGCGCA,0.0292
24,CTCGGGAA,-0.0568
25,AGTAACAC,0.106

row,Sequence,PBM E-score
1,CGCACAAG,0.0299
2,AAAAGATT,0.0589
3,CAGAGCTA,-0.283
4,CACATTTC,0.192
5,GGTGCCTA,-0.0877
6,CAATACAA,0.275
7,GAGGAGAA,-0.111
8,CATAACTA,-0.0347
9,CAGGGAGC,-0.0709
10,CTCAGTGC,-0.00885
11,CTTAGCCA,-0.00182
12,CGGGTACG,-0.237
13,ACGAAGAG,-0.00211
14,AGAGCTAA,-0.00606
15,ATACTCTG,0.123
16,ATAGTTGA,0.1
17,AAGGAGAA,0.0595
18,CCGGATGC,-0.107
19,CTTGATTC,0.0772
20,ACCCAACA,-0.0856
21,ATCTAATC,0.05
22,CTAGTAAG,0.00559
23,CTTGAGTA,0.0663
24,ACAGAAGG,-0.181
25,ATTTATAA,0.186

row,Sequence,PBM E-score
1,ACGCTACT,-0.108
2,AGATCATC,-0.0349
3,CAGGCAGC,-0.0509
4,CATGATGG,-0.0403
5,ACAGCCTG,0.0582
6,CGGCACAC,-0.00765
7,AGGTAGCC,-0.0804
8,GAAGCAGC,-0.167
9,CATATTGC,-0.0107
10,CATCGGCC,-0.0831
11,ATAACACA,0.0812
12,ATTGTTGA,0.146
13,AAGTAGTG,0.0607
14,ATGCAAGC,0.0922
15,ATAGATCA,0.21
16,AGTTAGAC,0.00674
17,GGTAGCAA,-0.092
18,TATCTAGA,-0.0175
19,CTGGCAAC,-0.079
20,AGTCAGAA,-0.0353
21,GAATTGGC,0.00301
22,ATAAACAT,-0.00844
23,GTATGCAA,0.0781
24,AACCGGTA,-0.149
25,TAAGCTGA,0.0392

row,Sequence,PBM E-score
1,CAATCCAC,-0.0677
2,ACCGTGTA,0.0649
3,CTCACCAC,-0.0591
4,CTGAAGAA,-0.0719
5,TAACCTAA,-0.00165
6,TCATATAA,0.108
7,AGCTGCCT,-0.298
8,ATCGAATA,-0.0933
9,GTACATCA,0.11
10,CCACCAGA,0.0154
11,TAAATTCA,0.0029
12,GGGAGAGA,-0.159
13,CTCTAGAA,-0.187
14,AGCTTTAG,-0.105
15,CCTTGGGC,-0.0447
16,ACGGTCCG,-0.231
17,GGGCACAA,-0.043
18,GTCGAAGA,-0.0187
19,CGACGTAC,0.027
20,CGTAGACG,-0.133
21,GCGTGTAA,-0.0365
22,AACAACTC,0.0486
